At least one structure is not confirmed: it was looked up by name or label, or the drawing left a doubt.
Biological target: T1, His-RCL (deoxynucleoside 5′-monophosphate N-glycosidase) (Rattus norvegicus, UniProt O35820)
T1 construct: made in house; host or cells: E. coli Bli5 (BL21 (DE3) pDIA17), plasmid pET28aRcl
T1 sequence (O35820 1-163): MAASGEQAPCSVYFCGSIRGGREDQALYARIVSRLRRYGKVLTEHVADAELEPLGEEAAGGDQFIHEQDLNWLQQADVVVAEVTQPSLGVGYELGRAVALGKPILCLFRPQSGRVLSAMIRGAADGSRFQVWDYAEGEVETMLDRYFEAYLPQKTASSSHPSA
Assay: Kinetic parameters of His-RCL (wild-type) with dNMP substrates, initial velocity measurements
Assay type: biochemical
Conditions: Table 1; substrate of His-RCL

## Cc1cn([C@H]2C[C@H](O)[C@@H](COP(=O)(O)O)O2)c(=O)[nH]c1=O [dTMP]
  kcat/Km: <0.14 M⁻¹ s⁻¹

From patent US7781394B2 (Institut Pasteur, priority 2006, dated 2010)
